This note sets out measurements from paper PMC5581180.

This data set relates to NeqSSB-TaqS fusion DNA polymerase. The data set is described as follows: EMSA. The conditions noted are these: mixed with 2.5 pmol 100 bp dsDNA, 10 pmol (dT)76, partial binding at 3.3 pmol protein, full at 26.4 pmol, prefers ssDNA; EMSA as in Olszewski et al. 2015 (buffer, salt, pH and temperature not given here); 10 pmol (dT)76 and/or 2.5 pmol 100 bp PCR product; 2% agarose gel, ethidium bromide; recombinant protein; protein details: C-terminal His tag; label: 5' fluorescein; single-stranded DNA. A general note: A gel shift assay detects complexes by their altered migration in electrophoresis.

For at least one entry, the source does not settle the construct or the ends of the probe.

For the sequence “TTTTTTTTTTTTTTTTTTTTTTTTTTTTTTTTTTTTTTTTTTTTTTTTTTTTTTTTTTTTTTTTTTTTTTTTTTTT [(dT)76]”, the binding result is reported as “binds”.
